Test [1] in a line: Cytotoxicity against human MESSA cells assessed as growth inhibition after 72 hrs by CellTitre-Glo assay. Format: functional, cell-based. The conditions noted are these: MES-SA.
Test [2] is described as follows: Cytotoxicity against human MESSA/DX5 cells assessed as growth inhibition after 72 hrs by CellTitre-Glo assay. The test is classed as functional, cell-based. The conditions noted are these: MES-SA/Dx5, 72 h.

Take `COc1cc2c(c(OC)c1OC)-c1ccc(OC)c(=O)cc1[C@@H](NC(C)=O)CC2` [COLCHICINE]: the 50% inhibitory concentration (IC50) in test [1] is 0.011 µM; in test [2] it was 0.329 µM.

Source of the values: ChEMBL document CHEMBL3351435, “New pyrrole derivatives with potent tubulin polymerization inhibiting activity as anticancer agents including hedgehog-dependent cancer” (J Med Chem, 2014).
